Source: PubChem BioAssay AID1671195 (Yale University, 2021)
Aim: 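Knockdowns that increase or decrease uptake of fluorescent LDL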 (primary screen). System: human Huh7 hepatoma cells. Knock-down reagent: siRNA pool against human genes, 18 nM. Duration: about 2 to 2.5 days of knockdown, then 8 h LDL uptake. Conditions: DiI-labelled LDL at 30 µg/ml for 8 h, in lipoprotein-deficient serum medium. Measurement: 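Per-cell DiI-LDL intensity by automated imaging; well means scaled to the plate median and given as a robust z-score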. Scale: robust z-score: higher = more LDL uptake after knockdown. Active means: 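a gene counts as active if at least two replicate z-scores exceed ±2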.
The whole screen tested about 22,000 reagents; below is an unselected part. About 1,510 of all reagents (6.9%) count as active. 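Active includes knockdowns raising or lowering LDL uptake; positive z-scores mean more uptake, negative mean less.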 Unmarked entries are inactive. Reagent sequences are not shown.

no.	Target gene	PubChem SID	robust z-score, replicate 1	robust z-score, replicate 2	robust z-score, replicate 3
1	LOC387910 (retired record) (GeneID 387910)	SID442900894	-0.802	-0.772	-0.891
2	NFATC3 (GeneID 4775)	SID442890228	0.833	0.0509	0.454
3	UBXN11 (GeneID 91544)	SID442884298	-2.17 (active)	-1.21	-2.21
4	GPR17 (GeneID 2840)	SID442902033	-1.07	-0.896	-1.04
5	LINC00473 (GeneID 90632)	SID442899979	-0.621	-0.578	-0.883
6	SLC23A3 (GeneID 151295)	SID442892355	0.493	0.0138	0.0247
7	FCGR3A (GeneID 2214)	SID442891238	0.0161	0.469	0.455
8	MRPL1 (GeneID 65008)	SID442890132	0.685	0.602	0.0919
9	HNRNPUL2 (GeneID 221092)	SID442889985	0.548	0.555	0.331
10	CD40 (GeneID 958)	SID442893557	0.244	-0.0173	-0.117
11	GAMTP1 (GeneID 391491)	SID442895716	0.0518	-0.278	-0.371
12	DNAH17 (GeneID 8632)	SID442884299	-1.93 (active)	-2.18	-1.49
13	DNAH17 (GeneID 8632)	SID442893960	-0.0609	-0.0324	0.0651

Records listed above called active:
Target gene	PubChem SID	robust z-score, replicate 1	robust z-score, replicate 2	robust z-score, replicate 3
UBXN11 (GeneID 91544)	SID442884298	-2.17 (active)	-1.21	-2.21
DNAH17 (GeneID 8632)	SID442884299	-1.93 (active)	-2.18	-1.49

Additional entries:
no.	Target gene	PubChem SID	robust z-score, replicate 1	robust z-score, replicate 2	robust z-score, replicate 3
14	CT75 (GeneID 440934)	SID442885295	1.8	2.05	0.873
15	NDUFB4 (GeneID 4710)	SID442889824	0.799	0.293	0.42
16	KLF5 (GeneID 688)	SID442904718	-1.99	-1.84	-1.66
17	ITGB5 (GeneID 3693)	SID442898258	0.705	-1.14	-1
18	LOC339685 (GeneID 339685)	SID442888830	0.815	0.665	0.482
19	PARP8 (GeneID 79668)	SID442901711	-0.89	-0.777	-1.17
20	GON4L (GeneID 54856)	SID442903824	-0.567	-1.54	-2.09
21	PLA2G7 (GeneID 7941)	SID442888176	1.26	0.0957	0.959
22	DUSP28 (GeneID 285193)	SID442898206	-0.683	-0.436	-0.3
23	SLC5A8 (GeneID 160728)	SID442898447	-0.658	-0.51	-0.332
24	LINC02239 (GeneID 340107)	SID442901884	-1.12	-0.969	-0.842
25	ASB7 (GeneID 140460)	SID442883214	3.8 (active)	1.75	6.02
26	SORL1 (GeneID 6653)	SID442893549	0.138	0.144	-0.168
27	FAM170B (GeneID 170370)	SID442899406	-0.779	-0.607	-0.463
28	SPRED3 (GeneID 399473)	SID442904342	-1.73	-1.53	-1.51
